Assay results taken from paper PMC3338822.
These are yes or no findings as the source states them, for the method shown. In cells and extracts the contact can be indirect. These calls come from enrichment with a bait or labelling near it, and not all partners need be listed.

These substances were tested against Ss-Sl2 (Sclerotinia sclerotiorum (endogenous in isolate SUN-F-M)) (UniProt A7EKS0) (assay: affinity purification with mass spectrometry).
For “Woronin body major protein (from UniProt A7EDY7)”, the binding was “binds”.

Each substance was assayed against Ss-Sl2 (Sclerotinia sclerotiorum (endogenous in isolate SUN-F-M)) (UniProt A7EKS0) (assay: affinity purification with mass spectrometry; 1 mg protein extract of the wild type strain (PDA, 4 days; hyphae and immature sclerotia) incubated with 2 μg Ss-Sl2 antibodies at 4°C overnight, protein A + G agarose, washed with PBS; bands analysed by LC/MS/MS; pre-immune serum as control; proteins that appeared in two independent experiments).
“40S ribosomal protein S2 (from UniProt A7F5X2)” was tested, and the binding was “binds”.
For “40S ribosomal protein S7 (from UniProt A7F4F2)”, the binding was “binds”.
In the case of “40S ribosomal protein S24 (from UniProt A7E6M6)”, the binding is reported as “binds”.
In the case of “60S ribosomal protein L6 (from UniProt A7E777)”, the binding is reported as “binds”.
With “60S ribosomal protein L9 (from UniProt A7E780)” the binding was “binds”.
For “60S ribosomal protein L10-A (from UniProt A7EJK9)”, the binding was “binds”.
With “60S ribosomal protein L17 (from UniProt A7F4H8)” the binding was “binds”.
In the case of “60S ribosomal protein L35 (from UniProt A7END6)”, the binding is reported as “binds”.
“Elongation factor 1-alpha (from UniProt A7EJM6)” was tested, and the binding was “binds”.
In the case of “Glyceraldehyde-3-phosphate dehydrogenase (from UniProt A7ER45)”, the binding is reported as “binds”.
In the case of Histone H2B.1 (from UniProt A7F043), the binding is reported as “binds”.
In the case of “Ribosomal protein S3 (from UniProt A7EP73)”, the binding is reported as “binds”.
